In publication PMC7618200 (The Biochemical journal, 2025):
Results are given in words; binding and its absence hold for the method and conditions named. In cells and extracts the contact can be indirect. Some results given as binding are weak or reduced against the parent protein; the word gives no strength. For part of these data: Where a sequence is shown, tags or fusion partners need not be part of it.

Amino acid sequences for entries named in this document (tags omitted).
UniProt Q9Y6Q9: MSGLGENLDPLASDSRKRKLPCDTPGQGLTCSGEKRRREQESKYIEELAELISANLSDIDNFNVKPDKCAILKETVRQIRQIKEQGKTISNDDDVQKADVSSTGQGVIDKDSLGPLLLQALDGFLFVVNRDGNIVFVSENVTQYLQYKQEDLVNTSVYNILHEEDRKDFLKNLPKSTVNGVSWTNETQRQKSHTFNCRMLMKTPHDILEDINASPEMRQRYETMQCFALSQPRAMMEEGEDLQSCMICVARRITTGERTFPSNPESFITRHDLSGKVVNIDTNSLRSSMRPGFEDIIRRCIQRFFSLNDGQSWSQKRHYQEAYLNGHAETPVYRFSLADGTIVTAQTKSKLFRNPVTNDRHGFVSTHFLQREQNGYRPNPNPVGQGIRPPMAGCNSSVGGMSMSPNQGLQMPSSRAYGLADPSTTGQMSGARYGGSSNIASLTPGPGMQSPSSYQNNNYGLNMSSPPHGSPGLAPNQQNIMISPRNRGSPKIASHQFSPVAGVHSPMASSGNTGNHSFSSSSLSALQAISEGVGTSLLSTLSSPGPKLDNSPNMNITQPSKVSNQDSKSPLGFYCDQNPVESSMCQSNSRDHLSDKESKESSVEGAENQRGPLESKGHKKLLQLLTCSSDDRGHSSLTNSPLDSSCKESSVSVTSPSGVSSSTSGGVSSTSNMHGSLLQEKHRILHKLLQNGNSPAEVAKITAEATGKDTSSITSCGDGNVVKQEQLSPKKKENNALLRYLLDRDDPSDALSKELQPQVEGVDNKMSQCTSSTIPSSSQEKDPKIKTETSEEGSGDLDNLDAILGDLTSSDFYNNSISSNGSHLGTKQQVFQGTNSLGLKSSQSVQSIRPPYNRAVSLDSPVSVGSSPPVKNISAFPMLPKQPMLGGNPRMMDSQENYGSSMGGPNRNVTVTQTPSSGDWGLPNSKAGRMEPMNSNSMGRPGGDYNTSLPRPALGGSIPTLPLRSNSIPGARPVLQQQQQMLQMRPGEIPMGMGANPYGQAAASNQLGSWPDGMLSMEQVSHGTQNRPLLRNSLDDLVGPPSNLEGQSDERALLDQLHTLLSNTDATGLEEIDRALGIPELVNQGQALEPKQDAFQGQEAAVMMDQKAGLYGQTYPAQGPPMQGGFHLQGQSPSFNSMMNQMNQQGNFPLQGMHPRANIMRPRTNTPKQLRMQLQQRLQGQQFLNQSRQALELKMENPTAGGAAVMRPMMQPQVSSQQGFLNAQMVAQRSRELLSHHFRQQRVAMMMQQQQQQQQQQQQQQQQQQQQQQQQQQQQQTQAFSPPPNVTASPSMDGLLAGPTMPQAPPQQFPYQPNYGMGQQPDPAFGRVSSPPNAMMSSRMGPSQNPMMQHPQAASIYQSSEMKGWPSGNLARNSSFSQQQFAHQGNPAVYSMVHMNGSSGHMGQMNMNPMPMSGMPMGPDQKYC
UniProt O43791: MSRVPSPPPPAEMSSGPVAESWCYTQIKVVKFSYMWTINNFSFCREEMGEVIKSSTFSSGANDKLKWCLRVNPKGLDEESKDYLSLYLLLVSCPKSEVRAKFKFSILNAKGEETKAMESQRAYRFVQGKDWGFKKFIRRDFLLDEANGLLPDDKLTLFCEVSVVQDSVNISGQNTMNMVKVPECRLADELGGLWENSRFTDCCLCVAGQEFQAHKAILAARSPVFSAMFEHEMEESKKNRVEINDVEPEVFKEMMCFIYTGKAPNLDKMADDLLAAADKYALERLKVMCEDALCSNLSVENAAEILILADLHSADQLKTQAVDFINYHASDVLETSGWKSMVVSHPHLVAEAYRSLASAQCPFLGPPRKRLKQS

What was measured:
Experiment in all cases: co-IP; anti-FLAG M2 agarose IP from NP-40 lysates of HEK293T cells overexpressing 2× FLAG-tagged protein; cells treated with 5 μM MLN4924 for 6 hours; immunoblot
[1] = target: FLAG-tagged SRC-3 (NCOA3, full length) (human) (UniProt Q9Y6Q9)
[2] = target: T1, FLAG-tagged SENP7 (full length) (human) (UniProt Q9BQF6)
T1 sequence: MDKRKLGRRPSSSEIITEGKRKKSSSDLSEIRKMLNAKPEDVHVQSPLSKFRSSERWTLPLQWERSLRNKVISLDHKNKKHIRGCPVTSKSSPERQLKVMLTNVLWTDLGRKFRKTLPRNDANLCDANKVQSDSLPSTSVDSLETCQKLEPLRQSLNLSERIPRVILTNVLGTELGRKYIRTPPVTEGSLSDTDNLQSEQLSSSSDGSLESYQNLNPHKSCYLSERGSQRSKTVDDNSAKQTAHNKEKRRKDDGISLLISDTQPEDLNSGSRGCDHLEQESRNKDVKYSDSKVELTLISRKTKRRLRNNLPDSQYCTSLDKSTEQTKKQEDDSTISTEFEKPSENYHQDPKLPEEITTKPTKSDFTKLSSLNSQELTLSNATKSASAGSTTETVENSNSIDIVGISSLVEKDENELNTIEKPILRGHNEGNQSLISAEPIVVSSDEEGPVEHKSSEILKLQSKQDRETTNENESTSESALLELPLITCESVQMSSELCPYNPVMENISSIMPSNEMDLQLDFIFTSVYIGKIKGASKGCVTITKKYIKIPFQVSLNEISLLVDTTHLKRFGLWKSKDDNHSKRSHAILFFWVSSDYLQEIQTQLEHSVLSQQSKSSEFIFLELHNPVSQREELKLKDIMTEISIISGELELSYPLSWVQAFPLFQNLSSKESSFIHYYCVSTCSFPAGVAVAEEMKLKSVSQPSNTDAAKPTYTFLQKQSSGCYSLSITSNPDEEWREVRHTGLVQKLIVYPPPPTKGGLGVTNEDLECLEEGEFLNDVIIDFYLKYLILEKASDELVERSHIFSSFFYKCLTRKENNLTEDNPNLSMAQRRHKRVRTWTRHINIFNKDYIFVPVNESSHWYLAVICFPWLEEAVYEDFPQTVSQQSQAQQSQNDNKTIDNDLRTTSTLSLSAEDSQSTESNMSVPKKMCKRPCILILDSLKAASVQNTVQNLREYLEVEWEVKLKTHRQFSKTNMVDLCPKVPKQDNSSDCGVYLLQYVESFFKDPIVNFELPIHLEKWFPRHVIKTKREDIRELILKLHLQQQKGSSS

[3] = target: T2, FLAG-tagged Caprin1 (full length) (human) (UniProt Q14444)
T2 sequence: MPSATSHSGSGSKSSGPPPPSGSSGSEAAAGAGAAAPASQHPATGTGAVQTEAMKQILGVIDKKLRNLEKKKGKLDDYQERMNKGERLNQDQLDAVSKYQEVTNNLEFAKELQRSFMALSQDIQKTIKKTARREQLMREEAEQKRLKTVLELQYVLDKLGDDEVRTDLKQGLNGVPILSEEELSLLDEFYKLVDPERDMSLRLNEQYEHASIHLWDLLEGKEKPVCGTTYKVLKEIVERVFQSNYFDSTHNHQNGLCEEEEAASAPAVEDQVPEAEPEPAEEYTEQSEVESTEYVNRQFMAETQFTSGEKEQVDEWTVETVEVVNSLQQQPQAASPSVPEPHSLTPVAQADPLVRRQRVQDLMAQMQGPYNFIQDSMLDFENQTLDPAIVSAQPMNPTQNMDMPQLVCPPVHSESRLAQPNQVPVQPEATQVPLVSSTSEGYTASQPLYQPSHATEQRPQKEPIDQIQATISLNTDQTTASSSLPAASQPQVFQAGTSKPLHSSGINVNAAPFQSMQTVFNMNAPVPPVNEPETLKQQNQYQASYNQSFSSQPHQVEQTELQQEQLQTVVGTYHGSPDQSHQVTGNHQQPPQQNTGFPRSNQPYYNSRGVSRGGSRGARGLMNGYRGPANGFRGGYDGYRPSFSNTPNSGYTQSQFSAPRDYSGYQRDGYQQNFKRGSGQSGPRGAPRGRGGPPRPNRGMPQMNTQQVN

Measured: binding

endogenous SPOP (speckle-type BTB/POZ protein) (from UniProt O43791 1-374)
binds: all assays above
